PubChem BioAssay AID624297 (National Center for Advancing Translational Sciences (NCATS), 2012)
About 6,200 (1.8%) of roughly 340,000 compounds were called active. The shares of active, inactive and inconclusive entries below differ from those in the screen. Calls follow the shape of the dose curve; as a rule, active = well fitted activation curve with a large enough effect; inconclusive = small, poorly fitted or top-dose-only effect; inactive = no such curve, though single readings can be large or run the other way. Potencies of inconclusive entries are doubtful fits and often do not repeat.

experiment: A quantitative high throughput screen for small molecules that induce DNA re-replication in SW480 colon adenocarcinoma cells.; also: nearly all actives have a fitted effect of over 55% in size; as to re-replication activation: % of control where 0% means no effect; settings: Hoechst DNA content imaging, 48 h; re-replication activation: at 46.1 µM (top of the series) unless noted
Summary of the method: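 Cells (250 per well) received 23 nL compound or DMSO by pin tool and were kept 48 hr at 37 C, 5% CO2. Nuclei were then stained with Hoechst for 40 min and scanned for DNA content.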
Potency is read from the fitted curve at half-maximal effect.

With `N#Cc1c(N)nc2c(c1-c1ccc(F)cc1)CCC2` as the compound, how does the Potency read?
The Potency was inconclusive: 29.1 µM [activator, single point].

Which re-replication activation does the source give for `COC(=O)C(C)Sc1nnc(SC(C)C(=O)OC)s1` (configuration not stated) here?
The re-replication activation was inactive: 0.0915% [at 9.22 µM].

With `COc1cc(S(=O)(=O)Nc2ccccc2N2CCCCC2)ccc1NC(C)=O` as the compound, how does the Potency read?
Its Potency is inconclusive: 29.1 µM [activator, single point].

Which Potency does the source give for `O=C1C(Cl)=C(Oc2ccccc2)C(=O)c2ccccc21` here?
The Potency was active: 2.06 µM.

Which Potency does the source give for `COC(=O)c1ccc(Cl)cc1NC(=O)/C=C/c1ccc(C)o1` here?
Its Potency is inconclusive: 2.91 µM [activator, full curve, poor fit].

Which Potency does the source give for `O=C(COc1ccccc1)NCC(c1cccs1)N1CCOCC1` (configuration not stated) here?
Its Potency is inconclusive: 29.1 µM [activator, single point].

With `Cc1nc(Nc2ccccc2)c2oc3ccc(Cl)cc3c2n1` as the compound, how does the “re-replication activation” value read?
Its value is inactive: 11.4%.

For `Cc1cccc(NC(=O)CCC2CCN(C(=O)C3CC=CCC3)CC2)c1` (configuration not stated), which Potency is on record?
Its Potency is inconclusive: 18.4 µM [activator, single point].

For `CCN(CC)S(=O)(=O)c1cccc(C(=O)N[C@H](C(=O)Nc2nc3ccc(F)cc3s2)C(C)C)c1`, which Potency is on record?
The Potency was inconclusive: 18.4 µM [activator, partial curve, poor fit].

For `Cc1c2ccccc2nc2c(F)c(NCCO)c(F)c(F)c12`, which Potency is on record?
Its Potency is inconclusive: 13 µM [activator, partial curve].

Which Potency does the source give for `COc1ccc(C(=O)c2ccc(Br)cc2)c(OC)c1OC` here?
Its Potency is inconclusive: 23.1 µM [activator, single point].

For `COc1ccccc1CNC(=O)C1CCCCN1S(=O)(=O)c1ccccc1` (configuration not stated), which Potency is on record?
Its Potency is inconclusive: 35.5 µM [activator, single point].

For `CC(C)C(NC(=O)OC(C)(C)C)C(=O)N1CCCC1C(=O)NC(Cc1ccccc1)C(N)=O` (configuration not stated), which Potency is on record?
Its Potency is inconclusive: 29.1 µM [activator, single point].

For `O=C(NCCc1ccc(Cl)cc1)c1ccc(CS(=O)Cc2ccccc2Cl)o1` (configuration not stated), which Potency is on record?
The Potency was inconclusive: 0.231 µM [activator, partial curve, poor fit].

With `CCNc1ccc(C(=O)OCC)cc1NC(=O)c1cccc(S(=O)(=O)N(C)c2ccccc2)c1` as the compound, how does the “re-replication activation” value read?
Its value is inactive: 1.14%.

Which Potency does the source give for `CCOC(=O)c1cc(-c2cccs2)nc2onc(C)c12` here?
Its Potency is inconclusive: 11.2 µM [activator, single point].

With `COc1cccc(-c2cn3nc(C)c(C)nc3n2)c1` as the compound, how does the Potency read?
The Potency was inconclusive: 20.6 µM [activator, partial curve, poor fit].

Which Potency does the source give for `Cc1cccc(OCCNC(=O)c2cc(-n3cnnc3)ccc2Cl)c1` here?
Its Potency is inconclusive: 0.13 µM [activator, full curve, poor fit].

Which Potency does the source give for `CCOCCCNC(=S)NCCNc1nc2ccc(C)cc2cc1C#N` here?
Its Potency is inconclusive: 29.1 µM [activator, partial curve, poor fit].

Which Potency does the source give for `Cc1noc(/C=C/c2nn(C)cc2Cl)c1[N+](=O)[O-]` here?
The Potency was inconclusive: 20.6 µM [activator, single point].

With `Cc1nn(C)c(C(=O)NC2C3CC4CC(C3)CC2C4)c1Cl` (configuration not stated) as the compound, how does the Potency read?
The Potency was active: 23.1 µM.

With `COc1cc(CNC(C)c2ccccc2)cc(Br)c1OCc1ccc(F)cc1` (configuration not stated) as the compound, how does the Potency read?
Its Potency is inconclusive: 29.1 µM [activator, single point].

Which “re-replication activation” value does the source give for `COc1ccc(C(OC(=O)c2c(C)noc2C)C(=O)NC2CCCC2)cc1` (configuration not stated) here?
The value was inactive: -9.55%.

With `COc1cc(CN2CCN(c3ccccc3F)CC2)cc(OC)c1O` as the compound, how does the Potency read?
Its Potency is inconclusive: 5.17 µM [activator, single point].

Which Potency does the source give for `CC(CCc1ccccc1)NC(=O)COC(=O)c1ccc(S(C)(=O)=O)c([N+](=O)[O-])c1` (configuration not stated) here?
Its Potency is inconclusive: 2.59 µM [activator, partial curve, poor fit].

For `COc1ccc(C)cc1S(=O)(=O)N1CCCC(N2CCOCC2)C1` (configuration not stated), which re-replication activation is on record?
Its re-replication activation is inconclusive: 50% [activator].

With `COCCCNc1nc2c(-c3cccc(C)c3)nnn2c2ccc(Cl)cc12` as the compound, how does the Potency read?
Its Potency is inconclusive: 16.4 µM [activator, single point].

With `O=C(c1ccccc1)C(CN1CCCCC1)c1ccccc1` (configuration not stated) as the compound, how does the Potency read?
Its Potency is active: 1.46 µM.

For `CCn1nnc(NC(=O)C(C)Oc2ccc(Cl)cc2Cl)n1` (configuration not stated), which “re-replication activation” value is on record?
The value was inactive: -9.58%.

With `O=C(CN1c2cccc3cccc(c23)S1(=O)=O)Nc1ccc(S(=O)(=O)N2CCOCC2)cc1` as the compound, how does the Potency read?
The Potency was inconclusive: 18.4 µM [activator, single point].

Which Potency does the source give for `CCOC(=O)c1csc(-c2sccc2Br)n1` here?
The Potency was inconclusive: 0.731 µM [activator, full curve, poor fit].

Which Potency does the source give for `Nn1c(SCC(=O)N2CCN(S(=O)(=O)c3ccc(Cl)cc3)CC2)nnc1-c1cccs1` here?
The Potency was inconclusive: 5.8 µM [activator, partial curve, poor fit].

For `CCOC(=O)C1(CCOc2ccccc2)CCN(Cc2ccc(C#CCCO)cc2)CC1`, which Potency is on record?
The Potency was inconclusive: 20.6 µM [activator, single point].

Which Potency does the source give for `CC(OC(=O)/C=C/c1ccc2ccccc2n1)C(=O)Nc1ccc(S(N)(=O)=O)cc1` (configuration not stated) here?
Its Potency is inconclusive: 29.1 µM [activator, single point].

Which Potency does the source give for `CCc1ccc(CN(C)CC(O)COc2cccc3ccccc23)cc1` (configuration not stated) here?
The Potency was inconclusive: 29.1 µM [activator, single point].

For `CCN(CC)c1nc(NNC(=O)c2ccccc2)nc(N(CC)CC)n1`, which “re-replication activation” value is on record?
The value was inactive: -4.61%.

Which “re-replication activation” value does the source give for `CCOc1cc(C=O)cc(N=Nc2cccc([N+](=O)[O-])c2)c1O` here?
Its value is inactive: -1.21%.

With `COc1cccc(O)c1CN1CCC(C(=O)Nc2ccc(-c3cccc(C)c3)cc2)CC1` as the compound, how does the Potency read?
The Potency was inconclusive: 29.1 µM [activator, single point].

For `CCN(CC)C(=O)C1CCN(S(=O)(=O)c2c(C)noc2/C=C/c2cccc(C)c2)CC1`, which Potency is on record?
Its Potency is inconclusive: 20.6 µM [activator, single point].

With `O=C(c1cccc(-c2ccccc2)c1)N1CC[C@@H](N2CCC(O)CC2)[C@H](O)C1` as the compound, how does the “re-replication activation” value read?
The value was inactive: -10.4%.

For `CCCSC(=S)NC1CCS(=O)(=O)C1` (configuration not stated), which Potency is on record?
The Potency was active: 16.4 µM.

For `CCCN1CCN(CCCNC(=O)c2ccccc2NC(=O)C2=C(C)OCCS2)CC1`, which Potency is on record?
The Potency was inconclusive: 29.1 µM [activator, single point].

For `CCN(CC(=O)NCc1ccc(F)cc1)C(=O)c1cc2ccccc2o1`, which Potency is on record?
Its Potency is inconclusive: 18.4 µM [activator, single point].

Which Potency does the source give for `COc1cc(-c2cc(OC)c3c(C)oc(C)c3c(=O)c2)ccc1O` here?
Its Potency is inconclusive: 29.1 µM [activator, single point].

For `COc1ccc(N(CC(=O)Nc2cc(C)on2)S(=O)(=O)c2cc(C)ccc2C)cc1`, which Potency is on record?
The Potency was inconclusive: 20.6 µM [activator, single point].

With `COC(=O)C1CCN(C(=O)c2cc(OC)c(OC)c(OC)c2)CC1` as the compound, how does the Potency read?
Its Potency is inconclusive: 29.1 µM [activator, single point].

With `COc1ccc(C2c3cc(OC)c(OC)cc3CCN2C(=O)c2ccccc2Br)cc1OC` (configuration not stated) as the compound, how does the Potency read?
The Potency was inconclusive: 20.6 µM [activator, single point].

For `O=C(CC(SCCO)c1ccc(F)cc1)c1ccco1` (configuration not stated), which Potency is on record?
Its Potency is inconclusive: 29.1 µM [activator, partial curve, poor fit].

For `Cc1ccc(CCC(=O)Nc2ccc(N(C)C)cc2)o1`, which Potency is on record?
The Potency was inconclusive: 29.1 µM [activator, single point].

Which “re-replication activation” value does the source give for `C=CCNC(=O)C(=O)N/N=C/c1ccco1` here?
Its value is inactive: -5.03%.

For `CCn1c(SCC(=O)c2[nH]c(C)c(C(C)=O)c2C)nnc1-c1ccccc1`, which “re-replication activation” value is on record?
The value was inactive: 4.11%.

For `C#CC(CC)(CC)NC(=S)Nc1cccc(C(C)=O)c1`, which Potency is on record?
The Potency was inconclusive: 18.4 µM [activator, partial curve, poor fit].

For `Cn1c(=O)n(C)c2cc(S(=O)(=O)Nc3ccc(F)cc3)ccc21`, which Potency is on record?
Its Potency is inconclusive: 29.1 µM [activator, single point].

For `C=CCn1c(SCc2c(C)noc2C)nc2cc(C(=O)O)ccc2c1=O`, which Potency is on record?
Its Potency is inconclusive: 7.31 µM [activator, partial curve].

For `CCc1ccc(CN2CCCC(C(=O)Nc3ccc(-c4cscn4)cc3)C2)o1` (configuration not stated), which Potency is on record?
The Potency was inconclusive: 18.4 µM [activator, single point].

With `Cc1ccc(NC(=O)c2cc(C)n(-c3cccc(C)c3)c2C)cc1` as the compound, how does the Potency read?
The Potency was inconclusive: 29.1 µM [activator, single point].

For `COc1ccc(/C=C2\C(=O)N(Cc3ccc(F)cc3)CC(=O)N2Cc2ccccc2)cc1`, which Potency is on record?
Its Potency is inconclusive: 16.4 µM [activator, partial curve, poor fit].

Which re-replication activation does the source give for `Cc1cccc(OCc2nnc(SCC(=O)N3c4ccccc4CC3C)n2C)c1C` (configuration not stated) here?
The re-replication activation was inactive: -3.4% [at 9.22 µM].

Which Potency does the source give for `COc1ccc(NC(=O)C23CC4CC(C2)CC(c2ccc(C)cc2)(C4)C3)cc1` here?
Its Potency is inconclusive: 18.4 µM [activator, partial curve, poor fit].

For `Cc1cc(C)nc(SCc2ccc(C(=O)N/N=C/c3cccc(O)c3O)cc2)n1`, which Potency is on record?
The Potency was inconclusive: 2.91 µM [activator, full curve].

For `Cc1ccc(-c2ccc(C(=O)Nc3ccccc3)o2)c2ccccc12`, which Potency is on record?
The Potency was inconclusive: 29.1 µM [activator, partial curve, poor fit].

For `Cc1ccc(NC(=S)c2ccccc2)cc1`, which “re-replication activation” value is on record?
Its value is inactive: 1.07%.

Which “re-replication activation” value does the source give for `CCN(CC(=O)Nc1ccccc1C(=O)OC)S(=O)(=O)c1ccccc1` here?
Its value is inactive: -1.56%.

With `CCC(=O)N/C(=N/c1nc(C)cc(C)n1)Nc1cccc(OC)c1` as the compound, how does the Potency read?
Its Potency is inconclusive: 20.6 µM [activator, single point].

For `COC(=O)c1ccc(N=C2S/C(=C\c3cc(C)n(-c4cccnc4)c3C)C(=O)N2C)cc1`, which Potency is on record?
The Potency was active: 18.4 µM.

Which Potency does the source give for `CCOC(=O)C(C)/C(C)=N/NC(=O)c1cc2ccccc2cc1O` (configuration not stated) here?
The Potency was inconclusive: 8.2 µM [activator, partial curve].

With `COc1ccccc1/C=C/C(=O)c1cc(Br)ccc1OC(=O)c1ccco1` as the compound, how does the Potency read?
The Potency was inconclusive: 29.1 µM [activator, single point].
